According to paper PMC10980705:
Results are given in words; binding and its absence hold for the method and conditions named. Some results given as binding are weak or reduced against the parent protein; the word gives no strength.

Molecular target: T1, WT monomer peptide 295…311 of tau
T1 chain: DNIKHVPGGGSVQIVYK
Assay: ThT fluorescence + TEM (fibril formation); 200 μM WT monomer seeded by 2 μM TL dimer; 1 x PBS, 25 μM ThT, 37C, shaking at 800 rpm 10 s before each reading, followed up to 144 h; fibrils called only with ThT signal change and fibrils in TEM; both purified
Conditions: remark: other sources report otherwise

- binding: binds
B1: WT monomer peptide 295…311 of tau (peptide)
peptide: DNIKHVPGGGSVQIVYK
modifications: here or on the partner: N-terminal acetylation; C-terminal amidation; N-terminal acetylation; C-terminal amidation
